Results on two compounds are retold here after ChEMBL document CHEMBL1153473, “Synthesis and biochemical evaluation of a range of sulfonated derivatives of 4-hydroxybenzyl imidazole as highly potent inhibitors of rat testicular 17alpha-hydroxylase/17,20-lyase (P-450(17alpha))” (Bioorg Med Chem Lett, 2009).

The target of the assay is T1, Aromatase (Homo sapiens, UniProt P11511).
T1 sequence (P11511 whole entry): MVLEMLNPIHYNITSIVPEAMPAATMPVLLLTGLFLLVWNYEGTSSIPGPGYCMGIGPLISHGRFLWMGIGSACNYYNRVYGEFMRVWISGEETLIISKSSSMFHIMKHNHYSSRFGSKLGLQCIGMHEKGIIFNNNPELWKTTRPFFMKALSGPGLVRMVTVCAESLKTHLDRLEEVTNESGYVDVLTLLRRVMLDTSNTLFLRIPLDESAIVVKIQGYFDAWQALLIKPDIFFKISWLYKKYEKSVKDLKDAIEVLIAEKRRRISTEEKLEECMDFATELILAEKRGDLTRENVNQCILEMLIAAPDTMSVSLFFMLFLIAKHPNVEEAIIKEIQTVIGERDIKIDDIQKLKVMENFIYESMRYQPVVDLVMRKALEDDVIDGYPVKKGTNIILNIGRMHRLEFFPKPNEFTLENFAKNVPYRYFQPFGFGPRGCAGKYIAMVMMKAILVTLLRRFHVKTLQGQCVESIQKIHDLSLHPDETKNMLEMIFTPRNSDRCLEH
Description: Inhibition of aromatase.

A word on the IC50: it is the concentration that inhibits the measured activity by half. Higher therefore signals weaker potency. In turn, `O=[N+]([O-])c1ccc(Cn2ccnc2)cc1` displayed an IC50 of 130 nM.
With `N#Cc1ccc(Cn2ccnc2)cc1` the figure was 1200 nM.
